Experimental data from patent publication US5830914A, “Apoptosis-controlling agent” (Kabushiki Kaisha Hayashibara Seibutsu Kagaku Kenkyujo, priority 1996, dated 1998).
Some results were stated once for a whole list of compounds, not compound by compound.

Experiments:
[1] = test system: HL-60 cells (ATCC CCL 240); assay: DNA fragmentation (ladder formation) by agarose gel electrophoresis; format: cell-based, human; design: key: +: When the DNA fragmentation, i.e., "ladders", specific to apoptosis was found; -: the DNA fragmentation was not found
[2] = test system: HLC cells, human lung cancer; assay: Apoptosis-controlling activity by electron microscopy (occurrence of apoptosis), adhesive tumor cells; format: cell-based; conditions: 18 hours
[3] = test system: U-937 cells (ATCC CRL 1593); assay: DNA fragmentation (ladder formation) by agarose gel electrophoresis; format: cell-based, human; design: key to Formation of ladder: +: When the DNA fragmentation, i.e., "ladders", specific to apoptosis was found; -: the DNA fragmentation was not found
[4] = test system: CCD-14Br (ATCC CCL 203), human bronchiole normal cell; assay: Apoptosis-controlling activity by electron microscopy (occurrence of apoptosis), normal cells; format: cell-based; conditions: 25 μg/ml, 18 hours
[5] = test system: SF-TY (JCRB0075), human skin normal cell; assay: as above; format: cell-based; conditions: 25 μg/ml, 18 hours
[6] = test system: HGC cells, human gastric cancer; assay: Apoptosis-controlling activity by electron microscopy (occurrence of apoptosis), adhesive tumor cells; format: cell-based
[7] = test system: PLC/PRF/5 (ATCC CRL 8024), human hepatoma; assay: as above; format: cell-based; conditions: 18 hours
[8] = test system: RPMI 4788 (FERM BP-2429), human colon cancer; assay: as above; format: cell-based; conditions: 18 hours

SMILES: CC(C)=CCc1cc(/C=C/C(=O)O)cc(CC=C(C)C)c1O [Compound 1, 3-[4-hydroxy-3,5-bis(3-methyl-2-butenyl)phenyl]-2-propenoic acid]
- Formation of ladder ([1]; 7 hours, 25 μg/ml): -
- Formation of ladder ([1]; 7 hours, 50 μg/ml): -
- Formation of ladder ([1]; 7 hours, 100 μg/ml): +
- Formation of ladder ([1]; 24 hours, 25 μg/ml): -
- Formation of ladder ([1]; 24 hours, 50 μg/ml): -
- Formation of ladder ([1]; 24 hours, 100 μg/ml): +
- Occurrence of apoptosis ([2]; 25 μg/ml): ± (less than 10% but not less than one %)
- Occurrence of apoptosis ([2]; 50 μg/ml): + (10% or higher)
- Formation of ladder ([3]; 7 hours, 23 μg/ml (so in the source)): -
- Formation of ladder ([3]; 7 hours, 50 μg/ml): -
- Formation of ladder ([3]; 7 hours, 100 μg/ml): +
- Formation of ladder ([3]; 24 hours, 25 μg/ml): -
- Formation of ladder ([3]; 24 hours, 50 μg/ml): +
- Formation of ladder ([3]; 24 hours, 100 μg/ml): +
- Dependence of ladder formation on concentration and culture time ([3]; Table 2, U-937 and HL-60 cells, 7 or 24 hours): the ladders dependently formed on the concentration of Compounds 1 to 5 and the culture time
- Occurrence of apoptosis [4]: - (less than one %)
- Occurrence of apoptosis [5]: - (less than one %)
- Occurrence of apoptosis ([6]; 25 μg/ml, 18 hours): + (10% or higher)
- Phenomena specific to apoptosis, order among tumor cell lines ([6]; HGC, RPMI 4788, HLC, PLC/PRF/5, in this order): more apparent in this order in HGC cells, a human gastric cancer cell line, RPMI 4788 cells (FERM BP-2429), a human colon cancer cell line, HLC cells, a human lung cancer cell line, and PLC/PRF/5 cells, a human hepatoma cell line
- Occurrence of apoptosis ([7]; 25 μg/ml): - (less than one %)
- Occurrence of apoptosis ([7]; 50 μg/ml): ± (less than 10% but not less than one %)
- Occurrence of apoptosis ([7]; 100 μg/ml): + (10% or higher)
- Occurrence of apoptosis ([8]; 25 μg/ml): ± (less than 10% but not less than one %)
- Occurrence of apoptosis ([8]; 50 μg/ml): + (10% or higher)
